# Laboratory results published in PubChem BioAssay AID445 (National Center for Advancing Translational Sciences (NCATS), 2006).
# The other results are listed elsewhere or left out. Further columns of the screen follow, without active or inactive calls. Compounds called inactive in the main read-out are mostly missing here. Potencies come from curve fits of mixed quality, noted in brackets.
# Experiment: IkB Signaling
# Conditions: ABC-DLBCL IkBa-CBG/CBR dual luciferase ratio (green luciferase fused to IkBa over red control in OCI-Ly3 lymphoma cells), 4 h
# Procedure, shortened: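 In this assay, an IκBα–CBG68 fusion accumulates when IKK-driven degradation is blocked; native CBR normalizes for cell number. OCI-Ly3 cells were treated 4 h with compound and doxycycline, then green and red light read after Chroma-Glo addition.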
# [1] = measured here: IkB-luc green channel
# [2] = measured here: control luc red channel
# [3] = measured here: control luc red channel unless noted
structure (smiles),measurement,setting,value
CCOC(=O)C1=C(N)n2c(s/c(=C\c3cccs3)c2=O)=C(C(=O)OCC)C1c1cccs1 (stereo not given),AC50,[1],"0.501 µM [rising, full curve, poor fit]"
same,AC50,[2],"0.398 µM [rising, full curve]"
COc1ccc(OC)c(-c2cc(C(=O)Nc3cccc(Cl)c3C)no2)c1,AC50,[3],"15.8 µM [falling, partial curve]"
O=C(CSc1nc(-c2ccccc2)nc2c1CCCC2)c1ccc(F)cc1,AC50,[3],"39.8 µM [falling, single point]"
Cc1ccc2nc(Nc3nc(=O)c4ccccc4n3C)nc(C)c2c1,AC50,[3],"0.316 µM [falling, full curve]"
CCCCN(CC)CCNC(=O)c1cc2c(-c3ccc(Cl)cc3)nn(C)c2s1,AC50,[3],"12.6 µM [falling, partial curve]"
O=C(Nc1ccc(Nc2ccccc2)cc1)c1ccco1,AC50,[3],"15.8 µM [falling, single point]"
COc1ccc(S(=O)(=O)N(Cc2ccc(OC)c(OC)c2)Cc2ccco2)cc1,AC50,[3],"10 µM [falling, partial curve]"
Cc1cc(NC(=O)Nc2cccs2)no1,AC50,[3],"3.16 µM [rising, partial curve]"
O=C(CSc1nc2c(oc3ccccc32)c(=O)n1Cc1ccco1)Nc1cccc(Cl)c1,AC50,[3],"39.8 µM [falling, partial curve]"
CC1(C)CC(=O)C(C2(O)C(=O)N(Cc3ccccc3)c3ccccc32)CO1 (stereo not given),AC50,[1],"20 µM [rising, partial curve]"
same,AC50,[2],"0.00316 µM [rising, full curve, poor fit]"
Cc1cn(C)c(CC(=O)Nc2cccc(Cl)c2C)c1C(=O)O,AC50,[3],"6.31 µM [rising, single point]"
C/C(N)=C(/C#N)C(=O)COC(=O)c1cc(C)n(-c2ccc(F)cc2)c1C,AC50,[3],"39.8 µM [falling, single point]"
Cc1cc(C)cc(NC(=O)CN2C(=O)c3ccccc3Sc3ccc(C(=O)N4CCOCC4)cc32)c1,AC50,[3],"3.98 µM [falling, full curve]"
COc1cc2c(cc1NS(=O)(=O)c1cccc(C#N)c1)n(C)c(=O)n2C,AC50,[3],"10 µM [rising, partial curve]"
Cc1ccc(CNC(=O)c2ccc(CSCc3ccc(Cl)cc3)o2)cc1,AC50,[3],"1 µM [rising, single point]"
O=C(NCc1cccc(F)c1)C1=Cc2cc(Br)ccc2OC1,AC50,[3],"25.1 µM [falling, single point]"
Cc1ccc(-n2ccnc(NCc3ccccc3)c2=O)cc1C,AC50,[3],"39.8 µM [falling, single point]"
CN(C1CCCCC1)S(=O)(=O)c1ccc2c(c1)c(=O)c(C(=O)NCCc1ccc(Cl)cc1)cn2C,AC50,[3],"25.1 µM [falling, partial curve]"

# Laid out differently: results already given.
structure (smiles) | measurement | setting | value
COc1ccc(OC)c(-c2cc(C(=O)Nc3cccc(Cl)c3C)no2)c1 | AC50 | [3] | 15.8 µM [falling, partial curve]
O=C(CSc1nc(-c2ccccc2)nc2c1CCCC2)c1ccc(F)cc1 | AC50 | [3] | 39.8 µM [falling, single point]
